Source: publication PMC10399995
Numbering of substitutions follows the chain as printed. These are yes or no findings as the source states them, for the method shown. In cells and extracts the contact can be indirect. Some binding calls cover weakened binding; strength is not graded here. Where a sequence is shown, tags or fusion partners need not be part of it.

Sequences of proteins named here, by UniProt entry; tags and fusion partners are left off.
UniProt Q5S007: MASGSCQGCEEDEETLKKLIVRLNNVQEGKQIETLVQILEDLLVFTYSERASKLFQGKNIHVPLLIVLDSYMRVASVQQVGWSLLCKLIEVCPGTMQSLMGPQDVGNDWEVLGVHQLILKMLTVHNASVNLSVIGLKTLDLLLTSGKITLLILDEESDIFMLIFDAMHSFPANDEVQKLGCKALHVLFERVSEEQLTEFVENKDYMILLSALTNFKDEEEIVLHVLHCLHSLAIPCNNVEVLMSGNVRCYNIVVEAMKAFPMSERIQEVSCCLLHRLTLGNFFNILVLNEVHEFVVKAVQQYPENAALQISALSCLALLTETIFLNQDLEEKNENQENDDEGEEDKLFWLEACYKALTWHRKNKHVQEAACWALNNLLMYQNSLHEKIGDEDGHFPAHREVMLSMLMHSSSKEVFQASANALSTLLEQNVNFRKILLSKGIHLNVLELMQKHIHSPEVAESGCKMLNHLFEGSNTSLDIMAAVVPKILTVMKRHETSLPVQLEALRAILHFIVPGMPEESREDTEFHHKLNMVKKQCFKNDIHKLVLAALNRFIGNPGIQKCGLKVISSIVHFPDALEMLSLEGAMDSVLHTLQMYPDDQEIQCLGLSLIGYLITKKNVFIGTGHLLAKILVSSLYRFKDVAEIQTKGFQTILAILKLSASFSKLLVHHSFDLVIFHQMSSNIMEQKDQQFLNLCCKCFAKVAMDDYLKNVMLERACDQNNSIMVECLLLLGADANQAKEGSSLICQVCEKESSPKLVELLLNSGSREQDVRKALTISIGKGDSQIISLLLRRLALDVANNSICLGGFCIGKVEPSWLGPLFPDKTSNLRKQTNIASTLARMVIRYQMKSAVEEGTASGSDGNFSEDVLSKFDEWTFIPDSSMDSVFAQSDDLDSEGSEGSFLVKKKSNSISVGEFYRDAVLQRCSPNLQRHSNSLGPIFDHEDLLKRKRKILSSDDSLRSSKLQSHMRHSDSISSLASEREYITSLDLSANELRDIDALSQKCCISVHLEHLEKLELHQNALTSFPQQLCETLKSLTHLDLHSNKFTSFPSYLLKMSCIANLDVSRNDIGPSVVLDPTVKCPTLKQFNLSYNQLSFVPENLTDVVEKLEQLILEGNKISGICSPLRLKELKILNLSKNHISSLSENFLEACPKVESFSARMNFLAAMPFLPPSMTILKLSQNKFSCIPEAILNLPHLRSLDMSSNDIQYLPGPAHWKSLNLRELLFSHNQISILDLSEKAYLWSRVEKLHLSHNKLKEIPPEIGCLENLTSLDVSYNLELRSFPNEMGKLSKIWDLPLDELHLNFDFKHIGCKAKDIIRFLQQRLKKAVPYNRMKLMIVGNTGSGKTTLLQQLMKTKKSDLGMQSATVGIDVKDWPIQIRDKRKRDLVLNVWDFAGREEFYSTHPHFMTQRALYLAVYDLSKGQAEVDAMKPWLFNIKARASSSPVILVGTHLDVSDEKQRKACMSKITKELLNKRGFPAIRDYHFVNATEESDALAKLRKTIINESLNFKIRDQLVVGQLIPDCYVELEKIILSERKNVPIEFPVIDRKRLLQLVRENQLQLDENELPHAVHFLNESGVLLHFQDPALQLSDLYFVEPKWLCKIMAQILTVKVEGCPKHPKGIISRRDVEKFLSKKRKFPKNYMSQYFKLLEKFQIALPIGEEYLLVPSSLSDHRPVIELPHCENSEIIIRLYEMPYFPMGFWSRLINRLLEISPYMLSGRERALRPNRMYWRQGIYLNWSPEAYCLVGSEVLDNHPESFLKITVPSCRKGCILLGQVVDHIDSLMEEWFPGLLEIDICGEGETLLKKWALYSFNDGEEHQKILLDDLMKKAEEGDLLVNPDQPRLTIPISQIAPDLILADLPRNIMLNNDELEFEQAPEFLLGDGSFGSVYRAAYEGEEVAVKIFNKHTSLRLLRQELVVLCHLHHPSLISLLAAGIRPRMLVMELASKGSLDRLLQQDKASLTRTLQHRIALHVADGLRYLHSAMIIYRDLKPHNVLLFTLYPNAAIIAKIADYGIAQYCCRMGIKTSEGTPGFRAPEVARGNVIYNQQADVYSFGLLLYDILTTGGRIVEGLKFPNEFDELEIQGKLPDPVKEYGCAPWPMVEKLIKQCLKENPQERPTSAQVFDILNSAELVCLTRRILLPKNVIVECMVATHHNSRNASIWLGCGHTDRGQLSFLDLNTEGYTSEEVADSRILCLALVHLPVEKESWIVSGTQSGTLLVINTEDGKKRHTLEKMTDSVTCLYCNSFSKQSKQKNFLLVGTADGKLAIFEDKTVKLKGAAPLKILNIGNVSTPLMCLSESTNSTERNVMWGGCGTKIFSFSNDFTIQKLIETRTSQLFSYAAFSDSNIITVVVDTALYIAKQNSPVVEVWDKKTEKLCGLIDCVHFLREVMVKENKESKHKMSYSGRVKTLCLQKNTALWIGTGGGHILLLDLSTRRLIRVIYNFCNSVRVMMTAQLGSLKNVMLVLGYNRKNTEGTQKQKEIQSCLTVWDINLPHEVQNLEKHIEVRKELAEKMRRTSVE

Columns and labels:
Assay in all cases: co-IP; Fig. S4C, legend not shown; the methods describe immunoprecipitation from cell lysates with Protein G-agarose and antibody or with GFP-Trap beads, 4°C, washes in TBS
[1] = molecular target: T1, GFP-Rab29 S185D (human Rab29) (human) (UniProt O14966)
T1 sequence: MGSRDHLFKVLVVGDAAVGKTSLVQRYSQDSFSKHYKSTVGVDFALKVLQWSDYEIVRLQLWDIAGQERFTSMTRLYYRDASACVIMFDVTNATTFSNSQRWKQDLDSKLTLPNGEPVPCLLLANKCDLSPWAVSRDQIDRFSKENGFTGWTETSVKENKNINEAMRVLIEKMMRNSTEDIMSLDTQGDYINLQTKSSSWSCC

[2] = molecular target: T2, GFP-Rab29 S185E (human Rab29) (human) (UniProt O14966)
T2 sequence: T1 sequence with D185E

[3] = molecular target: T3, GFP-Rab29 wild type (human Rab29) (human) (UniProt O14966)
T3 sequence: T1 sequence with D185S

[4] = molecular target: T4, GFP-Rab29 S185A (human Rab29) (human) (UniProt O14966)
T4 sequence: T1 sequence with D185A

binding [1]: binds
binding [2]: binds
binding [3]: binds
binding [4]: binds
Substance: leucine-rich repeat kinase 2 (LRRK2) (from UniProt Q5S007 1-2527) (enzyme)
